Earlier results, collected in US20190302102A1, “COMBINATION THERAPIES FOR TREATING BIPOLAR DISORDER, AND METHODS FOR USING THE SAME” (PsychNostics, LLC, priority 2016, published 2019).
For at least one compound, name, drawing or mass did not settle the structure.

How the values were obtained:
[1] = tested on: inositol trisphosphate (IP3); settings: lithium at concentrations as low as 1 mM; slices of cerebral cortex; cited from earlier work
membrane potentials (MP) = settings: Goldman-Hodgkin-Katz equation; Thiruvengadam 2001; cited from earlier work

SMILES: [Li] [Li, lithium]
- accumulation of inositol trisphosphate (IP3) [1]: increased
- calculated effect on membrane potentials (membrane potentials (MP)): depolarize
